From PubChem BioAssay AID652054 (National Center for Advancing Translational Sciences (NCATS), 2013)
About 9,100 (2.5%) of roughly 360,000 compounds were called active. Inconclusive means that the source gave no clear call. Such entries were picked first, then a sample of the others. Rule as the data show it: active = max response below about -50%; inconclusive = no clear call, values can overlap the other calls; inactive = above that.

Sequences of proteins named here, by UniProt entry; tags and fusion partners are left off.
UniProt P35462, whole entry, looked up: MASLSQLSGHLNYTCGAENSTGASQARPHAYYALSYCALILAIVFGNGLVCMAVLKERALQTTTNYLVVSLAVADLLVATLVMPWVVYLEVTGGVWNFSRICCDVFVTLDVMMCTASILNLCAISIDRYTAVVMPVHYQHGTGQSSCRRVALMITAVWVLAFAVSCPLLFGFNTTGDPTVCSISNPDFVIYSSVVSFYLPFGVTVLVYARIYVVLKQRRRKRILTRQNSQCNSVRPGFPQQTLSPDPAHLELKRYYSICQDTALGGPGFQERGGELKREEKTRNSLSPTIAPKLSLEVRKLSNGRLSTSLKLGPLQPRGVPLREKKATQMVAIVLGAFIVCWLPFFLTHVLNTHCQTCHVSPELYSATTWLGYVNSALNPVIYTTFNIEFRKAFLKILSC

What follows are molecules tested against D(3) dopamine receptor (Homo sapiens) (UniProt P35462) (assay: qHTS of D3 Dopamine Receptor Antagonist: qHTS). Details: D3R cells, DiscoveRx beta-arrestin luminescence, antagonist mode; stronger effect = lower value.
In short: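 Cells plated overnight at 1500 cells/well, then exposed to library compounds with dopamine controls for 90 minutes at 37 degrees C. DiscoveRx reagent added for 30–60 minutes at room temperature; luminescence read, quantitative HTS format.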
% is scaled to controls: 0 for no effect and ±100 for the full control effect.

Row | SMILES | max response, negative = inhibition
1 | CCc1nc2c(OCCc3cccc(OC)c3)cccn2c1N(C)C(=O)c1cccs1 | inconclusive: -32.5%
2 | CC[C@@]12C(=O)N(c3cccc(Cl)c3)C(=O)N1[C@H](c1cccc(C)c1)[C@@H]1C(=O)N(Cc3ccccc3)C(=O)[C@@H]12 | inconclusive: -42.3%
3 | O=C(COC(=O)c1cc(-c2ccc(Cl)s2)nc2ccccc12)NCc1ccco1 | inactive: -2.1%
4 | COc1cccc(NC(=O)c2cccc(OC)c2OC)c1 | inactive: 117%
5 | Cc1cc(C)c(S(=O)(=O)/N=C2/C=C(SCC(=O)O)C(=O)c3ccccc32)cc1C | inconclusive: -31.1%
6 | CC1CCCCN1CCNC(=O)c1ccc2c(c1)N(Cc1ccccc1F)C(=O)c1ccccc1S2=O (stereo unspecified) | inconclusive: -37%
7 | CC1=CC=CC2=NC(=O)CC(C)(C(=O)N(CC(=O)NC3CCCC3)c3ccccc3C)N12 (stereo unspecified) | inactive: -12.4%
8 | O=C(CCCn1c(=S)[nH]c2cc3c(cc2c1=O)OCO3)NCCc1ccccc1Cl | inconclusive: -39.3%
9 | COc1ccc(CC(C)N2CCN(Cc3ccccc3)CC2)c(OC)c1 (stereo unspecified) | active: -84.2%
10 | Cc1cc(C)n(-c2nc3sc4c(c3c3nnc(SC(C)C)n23)CC(C)(C)OC4)n1 | inconclusive: -43.7%
11 | CC(=O)N1CCN(CC(=O)Nc2c(Cl)ccc(C)c2Cl)CC1 | inactive: -0.0396%
12 | COc1cccc(CN2CCCC(C(=O)Nc3ccc(-c4cscn4)cc3)C2)c1 (stereo unspecified) | inconclusive: -34.3%
13 | COc1ccc(CNC(=O)c2ccc(C(C)(C)C)cc2)cc1 | inactive: -18.1%
14 | CC(CCN1CCN(c2ccccn2)CC1)c1ccccc1 (stereo unspecified) | inconclusive: -40.3%
15 | COc1ccc(C(CNC(=O)CN(C)S(=O)(=O)c2ccc(C)cc2)N2CCCC2)cc1 (stereo unspecified) | active: -98.8%
16 | O=C(CSc1nnc(-c2cccs2)n1-c1ccccc1)N1CCOCC1 | inactive: -22.7%
17 | CCN1CCN(C(=O)c2cnn3c(C(F)F)cc(-c4ccc(C)cc4)nc23)CC1 | active: -56.1%
18 | C[C@H](CO)N1C[C@H](C)[C@@H](CN(C)C(=O)CN2CCOCC2)Oc2cc(Br)ccc2S1(=O)=O | inactive: 6.29%
19 | CCOC(=O)c1ccc(N=c2sc(C(=O)OC)cc(=O)n2Cc2ccco2)cc1 | inconclusive: -39%
20 | Cc1ccc(CNC(=O)c2ccc(N(C)S(=O)(=O)c3ccccc3)cc2)cc1 | inconclusive: -31.6%
21 | O=C(NCc1ccc2c(c1)OCO2)C1CCCN1C(=O)Nc1ccccc1 (stereo unspecified) | inconclusive: -40.8%
22 | COc1ccc(Cl)cc1-c1n[nH]c(=S)o1 | active: -83.8%

Row | SMILES | max response, negative = inhibition
23 | C#CCN1C(=O)C(O)(CC(=O)c2ccc3c(c2)OCCO3)c2ccccc21 (stereo unspecified) | inconclusive: -46%
24 | OC[C@H]1O[C@@H](c2nc(-c3ccccc3Br)no2)[C@H](O)[C@@H]1O | inconclusive: -34.5%
25 | O=C(C1CCC1)N1CCc2cc(S(=O)(=O)N3CCN(c4ccccn4)CC3)ccc21 | inconclusive: -46.7%
26 | Cc1ccc2c3c1C1(C(=O)N3C(C)(C)CC2C)C(C#N)=C(N)Oc2cc(O)ccc21 (stereo unspecified) | inconclusive: -42.3%
27 | O=C(CCCSc1ccccc1)Nc1nc(-c2ccco2)c(-c2ccco2)s1 | inactive: -12.2%
28 | Oc1ccc(C2N=C(c3ccccc3)NC(c3ccccc3)=N2)cc1 | inconclusive: -32.7%
29 | Cc1ccc(NC(=O)C2(c3ccccc3)CC2(Cl)Cl)cc1C (stereo unspecified) | inconclusive: -35.9%
30 | COc1ccccc1N1CCN(CC(=O)Nc2nc(C)c(C(=O)N(C)C)s2)CC1 | inactive: 9.54%
31 | Fc1ccc(N2CCN(C3=Nc4cccc5cccc3c45)CC2)cc1 | inactive: -20.2%
32 | CC1=NN2C(=N)/C(=C\c3ccc(SCc4ccccc4)o3)C(=O)N=C2S1 | inconclusive: -32.6%
33 | OC(CNCC1COc2ccccc2O1)COc1ccccc1F (stereo unspecified) | active: -78.2%
34 | O=C(NC(=S)Nc1nc2ccc(F)cc2s1)c1ccco1 | inconclusive: -33.7%
35 | Cc1ccccc1NC(=S)NNC(=O)c1ccncc1 | inconclusive: -31.6%
36 | COc1cc(OC)cc(-c2c(Sc3ccccc3)c3cc(-c4cnc(OC)nc4)ccc3n2C)c1 | inconclusive: -32.8%
37 | COc1ccc(-c2cc(C(=O)N3CCN(Cc4ccccc4)CC3)no2)cc1OC | inconclusive: -47.9%
38 | CC(C)(C)NC(=O)C(c1ccco1)N(C(=O)Cn1nnc(-c2ccc(F)cc2)n1)c1ccccc1 (stereo unspecified) | inactive: 4.08%
39 | CCN(CC)CCOC(=O)c1c(C)oc2ccc(O)cc12 | active: -71.6%
40 | O=C(CCCC(=O)NCc1ccc(F)cc1)NCc1ccc(F)cc1 | inactive: 16.2%
41 | CN(Cc1ccccc1)CC(O)COc1ccc(CNCc2ccc(Cl)s2)cc1 (stereo unspecified) | inconclusive: -33.9%
42 | CCN(CC)CCCNC(=O)c1cc2c(=O)[nH]c3ccc(C)cc3c2s1 | active: -89.2%
43 | Cc1ccc(CN(C(=O)c2ccccc2C)C2CCS(=O)(=O)C2)o1 (stereo unspecified) | inconclusive: -31.6%
44 | CCSC1=NCCN1S(=O)(=O)c1ccc2ccccc2c1 | inactive: -1.65%

Row | SMILES | max response, negative = inhibition
45 | COc1cc(OC)c(NC(=O)C(=O)CC(=O)c2ccc(C)cc2C)cc1Cl | inconclusive: -35.9%
46 | CN(CCc1ccccn1)C(=O)c1ccc(OC2CCN(CCc3ccccc3)CC2)cc1 | inconclusive: -49.6%
47 | O=C(NCCO)/C(=C\c1ccc(Br)cc1)NC(=O)c1cccs1 | inconclusive: -30.2%
48 | COc1ccc(CN2CCN(S(=O)(=O)c3ccccc3)CC2)cc1Br | inconclusive: -43.3%
49 | O=C(N/N=C/c1ccc(Cl)c([N+](=O)[O-])c1)c1cc(-c2ccccc2)nc2ccccc12 | inactive: -8.16%
50 | N=c1n(CCN2CCCCC2)c2ccccc2n1CC(=O)c1ccc(Cl)c(Cl)c1 | inconclusive: -31.7%
51 | CNC(=O)C1C(=S)NC(N)=C(C#N)C1c1ccccc1 (stereo unspecified) | inconclusive: -31.5%
52 | COC(=O)CSC1=C(C#N)C(c2ccc(F)cc2)CC(=O)N1 (stereo unspecified) | inactive: -14.9%
53 | CCOc1cccc(-c2c(C(=O)N/N=C/c3ccc(Br)cc3)nnn2-c2nonc2N)c1 | inactive: 0.067%
54 | COc1ccc(S(=O)(=O)N2CCC(C(=O)NCC(c3cccs3)N(C)C)CC2)cc1 (stereo unspecified) | inconclusive: -31.9%
55 | O=C(CSc1nc(=O)n2ccccc2n1)N1CCC(Cc2ccccc2)CC1 | inconclusive: -35.4%
56 | CN(c1ccccc1)S(=O)(=O)c1cc(C(=O)OCC(N)=O)ccc1Cl | inactive: -0.81%
57 | O=C(NCCCn1ccnc1)Nc1ccc(Cl)c(Cl)c1 | inconclusive: -45.4%
58 | OC(Cn1cncn1)c1ccc(Cl)cc1Cl (stereo unspecified) | inactive: 0%
59 | N=C1/C(=C\c2ccc(-c3cc(Cl)cc(Cl)c3)o2)C(=O)N=C2SC=C(c3ccccc3)N12 | inconclusive: -31.4%
60 | CCCc1c(C)[nH]c2ccccc2c1=O | inactive: 37.1%
61 | CN1CCN(NC(=O)COc2cccc(C(F)(F)F)c2)CC1 | inconclusive: -32.4%
62 | Cc1nc(C(F)(F)F)ccc1C(=O)N1CCC1(C)C(=O)NS(=O)(=O)c1ccc(F)cc1F (stereo unspecified) | inactive: 19.8%
63 | Cc1nc(N2CCN(Cc3ccccc3)CC2)nc2c1C(=O)CC(c1ccco1)C2 (stereo unspecified) | active: -52.8%
64 | O=[N+]([O-])c1ccc(N/N=C\c2cccn2-c2ccccc2)nc1 | inconclusive: -36.2%
65 | CCN(CCCNC(=O)c1nn(C)c2c1CS(=O)(=O)c1ccccc1-2)Cc1ccccc1 | active: -55.9%
66 | C/C(=N\NC(=S)Nc1cccc(C)c1)c1ccccc1 | active: -51.5%

Among those listed so far, 2 have a tert-butyl group:
Row | SMILES | max response, negative = inhibition
13 | COc1ccc(CNC(=O)c2ccc(C(C)(C)C)cc2)cc1 | inactive: -18.1%
38 | CC(C)(C)NC(=O)C(c1ccco1)N(C(=O)Cn1nnc(-c2ccc(F)cc2)n1)c1ccccc1 (stereo unspecified) | inactive: 4.08%

Further entries.

Row | SMILES | max response, negative = inhibition
67 | Clc1cccc(Cc2c(-c3ccco3)nc3ccc(Cl)cn23)c1 | inconclusive: -33.7%
68 | Cc1ccc(F)c(S(=O)(=O)NC(=O)C2(C)CCN2C(=O)C2(c3ccc(Cl)cc3)CCC2)c1 (stereo unspecified) | inconclusive: -48.4%
69 | CC1(C)CC(=O)C2=C(C1)N(c1ccccc1C#N)C(N)=C(C#N)C2c1cccs1 (stereo unspecified) | inconclusive: -30.3%
70 | COc1ccc(CSc2ncn[nH]2)cc1[N+](=O)[O-] | inconclusive: -32.2%
71 | COc1ccc2oc(C(=O)OCC(=O)NC3CCCCC3)c(C)c2c1 | inactive: -1.09%
72 | O=C(Cn1cnc2c(NCc3ccccc3)ncnc21)NCCCc1ccccc1 | inactive: 1.44%
73 | CN(Cc1ccccc1O)CC1CCCN(CCc2ccc(Cl)cc2)C1 (stereo unspecified) | active: -54.6%
74 | Cc1c(Cl)ccc(S(=O)(=O)N2CCN(C)CC2)c1Cl | inconclusive: -34.2%
75 | N#Cc1nc(COc2ccc(Br)cc2)oc1N1CCCCCC1 | inconclusive: -30.6%
76 | CC1(C(=O)O)CCCN(C(=O)c2ccc(F)cc2Cl)C1 (stereo unspecified) | inactive: 0%
77 | Cc1ccc(OCC(O)CN2CCN(CC(O)COC(C)C)CC2)c(C(C)(C)C)c1 (stereo unspecified) | inconclusive: -48.6%
78 | COc1ccccc1C(NC(=O)C1CCN(CCOc2ccc(Cl)cc2)CC1)c1ccccn1 (stereo unspecified) | active: -77.8%
79 | OCC1(CCc2ccccc2)CCN(Cc2cnc(N3CCCC3)s2)CC1 | inconclusive: -39.1%
80 | CC1=C(C(=O)N(C)C)CC(CC(=O)NCCN2CCOCC2)C(=O)N1CCCN1CCCC1=O (stereo unspecified) | inconclusive: -36.7%
81 | Cc1ccc(N2CCN(CC3CC=CCC3)CC2)cc1 (stereo unspecified) | active: -141%
82 | CCCN(CCC)CCCNS(=O)(=O)c1cc(Br)cc2c1N(C(C)=O)CC2 | inconclusive: -37.1%
83 | CCOC(=O)c1c(C)n(C)c2ccc(O)c(CN(C)C)c12 | inconclusive: -38.1%
84 | COc1cccc(-c2oc3c(c2C#CCCO)C(O)CCC3)c1 (stereo unspecified) | inconclusive: -31.4%
85 | COc1ccc(N)c2c1C(=O)c1ccccc1C2=O | inconclusive: -32.4%
86 | O=C(N/N=C/c1ccc(O)cc1)c1ccc(NC(=O)c2ccccc2Br)cc1 | inconclusive: -43.1%
